PubChem BioAssay AID2685 (National Center for Advancing Translational Sciences (NCATS), 2010)
Some of the results follow. These are further read-outs of the screen, such as a control signal, another cell line or another target. No call is given for them. Most of these compounds were active or inconclusive in the main read-out, so they are no random draw. Potencies come from curve fits of mixed quality, noted in brackets.

Assay: qHTS Assay for Lipid Storage Modulators in Drosophila S3 Cells;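 for cell number change: cells counted by Cell Tracker Red CMTPX staining in the red channel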
Conditions: BODIPY lipid droplet fluorescence, 18-24 h; for cell number change: measured here: cell count max response, cells fed with added oleic acid
Method in brief: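 Laser-scanning cytometry quantifies lipid droplet accumulation (500–530 nm total intensity; droplet/cell object ratio) in oleic acid-fed (400 uM added) Drosophila S3 cells treated with a concentration series. 20 uM Triacsin C defined 100% inhibition.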

[1] = measured here: lipid fluorescence (Fed channel) AC50, cells fed with added oleic acid
[2] = measured here: cell number channel AC50, cells fed with added oleic acid

SMILES | cell number change | AC50 [1] | AC50 [2]
CCOc1ccc(N(CC(=O)NN=C2CCN(C)CC2)S(=O)(=O)c2ccc(Br)cc2)cc1 | -11.3% | 580 nM [rising, single point] | –
O=C(CSc1nc2ccccc2[nH]1)N1CCN(c2ccc(F)cc2)CC1 | 3.75% | 116 nM [rising, full curve, poor fit] | –
Cc1cc(-c2ccc(C(C)C)c(S(=O)(=O)N3CCOc4ccccc43)c2)on1 | -38.2% | 2910 nM [falling, single point] | 20600 nM [falling, single point]
Cc1cccc(NC(=O)c2cc3c(=O)n4ccccc4nc3s2)c1 | 6.52% | – | –
CC(=O)Nc1ccc(NC(=O)CSCc2cnn(-c3ccccc3)c2-n2cccc2)cc1 | – | 4.61 nM [falling, full curve, poor fit] | –
COCCNC(=O)C1CC(=O)N(C2CCCCC2)C1 (stereo not drawn) | 28.8% | 651 nM [rising, full curve, poor fit] | –
CCCn1c(N)c(N(CCOC)C(=O)c2ccc(N(C)S(=O)(=O)c3ccc(C)cc3)cc2)c(=O)[nH]c1=O | 45.4% | – | 29100 nM [rising, single point]
OCC1OC(n2cnc3c(NC4CCCCC4)ncnc32)C(O)C1O (stereo not drawn) | -3.05% | 5.17 nM [falling, full curve, poor fit] | –
Cc1ccc(-c2nnc(SCC(=O)NCCN3C(=O)CSC3=O)n2C)cc1 | 15% | 146 nM [falling, full curve, poor fit] | –
CCN(CC(=O)Nc1ccc(NC(C)=O)cc1)CC(=O)Nc1cccc(Cl)c1 | 51.1% | – | 10300 nM [rising, partial curve, poor fit]
COc1cccc(OCCCN2CCCCCC2)c1 | 12.4% | – | 461 nM [rising, single point]
Cc1cc(/C=C2/C(=O)N(C)C(=S)N2C)c(C)n1C1CC1 | – | 16400 nM [falling, partial curve, poor fit] | –
CC(=O)OC1COC(N2CCc3cc(Br)c([N+](=O)[O-])cc32)C(OC(C)=O)C1OC(C)=O (stereo not drawn) | 25.9% | 2910 nM [rising, partial curve] | –
CCCC1=NN(c2ccc([N+](=O)[O-])cc2)C(=O)/C1=C/N(C)C | -26.2% | – | 6510 nM [rising, partial curve, poor fit]
CCCn1c(-c2ccc(OC)cc2)nc2c(=O)n(C)c(=O)[nH]c21 | – | 6510 nM [falling, full curve] | –
Cc1ccc(-c2nc(SC(C)C(=O)N3CCOCC3)n[nH]2)cc1 (stereo not drawn) | 16.1% | – | 2060 nM [rising, single point]
C/C(=N\Nc1nc(C)cc(C)n1)c1ccc(N2CCOCC2)cc1 | 24.2% | – | –
Cc1cc2oc(=O)cc(CN3CCOCC3)c2c(C)c1Cl | 44.4% | 259 nM [rising, full curve] | 29100 nM [rising, single point]
N#CCC(=O)Nc1ccc(C(=O)OCC(=O)NCc2ccc3c(c2)OCO3)cc1 | -9.81% | 1300 nM [rising, full curve] | –
CC1(C)Cc2c(c(N3CCOCC3)nc3sc(C(=O)Nc4ccc(Cl)cc4)c(N)c23)CO1 | 0.952% | – | –
CCN1CCN(c2ccc(S(=O)(=O)N3CCOCC3)cc2NC(=O)c2ccccc2SC)CC1 | -6.94% | – | –
COc1ccc(CCNC(=O)c2cc(C3CC3)nc3c2cnn3C(C)C)cc1OC | -13.3% | 14600 nM [falling, partial curve, poor fit] | –

SMILES | cell number change | AC50 [1] | AC50 [2]
Cc1ccc(S(=O)(=O)N2CCC(Oc3cccc(C(F)(F)F)c3)CC2)cc1 | 15.9% | – | –
CCOc1ccc(C(=O)N/N=C/c2cc(Cl)ccc2[N+](=O)[O-])cc1 | – | 920 nM [rising, full curve] | –
Cc1cccc(C)c1NC(=O)CNC(=O)C1CC(=O)N(Cc2ccccc2)C1 (stereo not drawn) | – | 116 nM [rising, full curve, poor fit] | –
O=C(Oc1ccc2c(=O)c(Cl)coc2c1)c1ccncc1 | -11.3% | 3260 nM [falling, single point] | –
O=C(NCc1ccccc1)C1CCCN1S(=O)(=O)c1ccc(F)cc1 (stereo not drawn) | -14.4% | – | –
O=C(c1ccccc1C(=O)N(c1ccccc1)c1ccccc1)N1CCCCC1 | -13.6% | – | –
O=C(NCc1ccccc1)c1ccc(CSc2ccccc2)o1 | 15.8% | 32600 nM [rising, single point] | –
CCC(=O)N1CCC(c2ccc(OC)cc2)=N1 | – | – | 130 nM [rising, full curve, poor fit]
O=C(CCn1c(=S)[nH]c2ccccc2c1=O)Nc1cccc(Cl)c1 | 58.5% | 5800 nM [falling, single point] | –
CCOc1ccc(N2CC(C(=O)NC3CCCC3)CC2=O)cc1 (stereo not drawn) | 1.9% | 231 nM [rising, full curve, poor fit] | –
COc1ccc(Nc2nc(-c3ccc4c(c3)NC(=O)CO4)cs2)cc1 | 94.1% | – | –
NC(=O)c1cc(-c2ccccc2)nc(N2CCOCC2)n1 | 35.6% | – | 25900 nM [rising, single point]
O=C(NC(=O)c1ccccc1)Nc1ccccc1 | – | 6510 nM [falling, single point] | 1840 nM [falling, partial curve]
O=C(NC(=S)Nc1ccc(Br)cn1)c1cccs1 | – | 580 nM [falling, full curve] | 731 nM [rising, single point]
O=C(COC(=O)c1ccco1)NCc1ccco1 | 5.19% | – | –
COc1ccc(CCNC(=O)CCC(=O)N2CC(C)Oc3ccc(Cl)cc32)cc1OC (stereo not drawn) | -17.9% | – | –
CC(=O)c1cccc(NC(=S)N2CCN(S(C)(=O)=O)CC2)c1 | -1.7% | 20600 nM [rising, single point] | –
COc1ccc2cc(/C=N/NC(=O)CN(c3ccccc3)S(=O)(=O)c3ccccc3)c(Cl)nc2c1 | 11% | 2060 nM [rising, full curve] | –
COC(=O)c1cccc(NC(=O)CSc2nnc(COc3cccc(C)c3)n2C)c1 | -13.3% | 58 nM [falling, full curve, poor fit] | 146 nM [falling, full curve, poor fit]
CS(=O)(=O)N(CC(=O)N1CCN(Cc2ccccc2)CC1)Cc1ccccc1 | -20% | 6510 nM [falling, single point] | 7310 nM [falling, single point]
O=C(CSc1nc2ccccc2c(=O)n1-c1ccc(F)c(Cl)c1)Nc1cccc(S(=O)(=O)N2CCOCC2)c1 | 13.7% | 6510 nM [rising, single point] | –
Cc1ccc(C(=O)NC2CCN(C(=O)Nc3ccc(F)cc3)CC2)cc1 | – | 116 nM [rising, partial curve, poor fit] | –

SMILES | cell number change | AC50 [1] | AC50 [2]
COc1cc(/C=N/NC(=O)NC23CC4CC(CC(C4)C2)C3)ccc1O | -36.1% | – | 411 nM [falling, full curve, poor fit]
CN(C)CCNC(=O)c1cccc(S(=O)(=O)Nc2ccc(F)cc2)c1 | -3.09% | 146 nM [falling, single point] | –
COc1ccc(CCN2CN(S(=O)(=O)c3ccc(OC)cc3)c3nc4ccccc4nc32)cc1 | 16.7% | 1840 nM [rising, partial curve] | –
CN1c2ccccc2N(C)C1(C)c1cccc2ccccc12 | 12% | 4610 nM [rising, full curve, poor fit] | –
Fc1ccc(-n2c(-c3ccco3)nc3nc4ccccc4nc32)cc1 | -9.03% | 731 nM [rising, full curve] | –
O=C(O)C1CCCCN1S(=O)(=O)c1ccccc1 (stereo not drawn) | -55.4% | 20600 nM [falling, single point] | 3660 nM [falling, full curve]
C=CCNC(=O)CCNS(=O)(=O)c1ccc(Br)cc1 | -1.94% | 580 nM [falling, partial curve, poor fit] | –
CCCCCN1C2=NCCN2c2ccccc21 | 22% | 32600 nM [rising, single point] | –
O=C(NC1=NCCS1)c1ccccc1 | 20.4% | – | –
COc1ccc(NC(=O)Nc2ccc([N+](=O)[O-])cc2)cn1 | 24.6% | 116 nM [rising, single point] | –
O=C(CSCc1cnn(-c2ccccc2)c1-n1cccc1)NCc1ccc2c(c1)OCO2 | 12.1% | 103 nM [rising, full curve, poor fit] | –
O=C(c1cccc(F)c1)N1CCN(C2CCCCC2)CC1 | -52.6% | – | 29100 nM [falling, single point]
COc1ccc(F)cc1S(=O)(=O)NCCN1CCOCC1 | -14.9% | 6510 nM [falling, single point] | –
COc1ccc(S(=O)(=O)N(CC(=O)N2CCN(c3ccccc3OC)CC2)c2ccccc2)cc1 | -19.9% | – | –
Cc1cccc(NC(=O)CCc2nc3sc4c(c3c(=O)[nH]2)CCCC4)c1 | -0.958% | 2590 nM [falling, full curve] | –
O=C(CCn1cccc1)Nc1cccc(F)c1 | -10.7% | 1160 nM [falling, full curve, poor fit] | –
N#C/C(=C\c1ccncc1)c1ccccn1 | 13.9% | 1300 nM [rising, full curve] | –
Cc1ccc2c(C)c(C(=O)N(Cc3ccccc3)C3CCS(=O)(=O)C3)oc2c1 (stereo not drawn) | -22.2% | 18400 nM [falling, single point] | –
CCOC(=O)c1oc2ccccc2c1CSc1nnc(-c2ccco2)o1 | -21.8% | – | –
O=C1c2cccc3c([N+](=O)[O-])ccc(c23)C(=O)N1c1ccccn1 | -91.2% | 29100 nM [falling, single point] | –

Single records, as listed above:
O=C(CSCc1cnn(-c2ccccc2)c1-n1cccc1)NCc1ccc2c(c1)OCO2 in the list: cell number change: 12.1%; AC50 [1]: 103 nM [rising, full curve, poor fit]
COc1ccc(CCN2CN(S(=O)(=O)c3ccc(OC)cc3)c3nc4ccccc4nc32)cc1 in the list: cell number change: 16.7%; AC50 [1]: 1840 nM [rising, partial curve]
COc1ccc(F)cc1S(=O)(=O)NCCN1CCOCC1 in the list: cell number change: -14.9%; AC50 [1]: 6510 nM [falling, single point]
COc1ccc(NC(=O)Nc2ccc([N+](=O)[O-])cc2)cn1 in the list: cell number change: 24.6%; AC50 [1]: 116 nM [rising, single point]
